Percent effect of library compounds

Amino acid sequences for entries named in this document (tags omitted). Residues count along the entry.
UniProt P9WPC5, whole entry: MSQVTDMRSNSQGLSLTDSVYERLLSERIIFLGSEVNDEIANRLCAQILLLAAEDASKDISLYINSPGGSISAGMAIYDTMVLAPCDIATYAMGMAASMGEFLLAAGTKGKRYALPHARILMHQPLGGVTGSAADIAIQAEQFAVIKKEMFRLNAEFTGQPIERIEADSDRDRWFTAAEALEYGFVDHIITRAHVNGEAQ
UniProt P9WPC3, whole entry partner: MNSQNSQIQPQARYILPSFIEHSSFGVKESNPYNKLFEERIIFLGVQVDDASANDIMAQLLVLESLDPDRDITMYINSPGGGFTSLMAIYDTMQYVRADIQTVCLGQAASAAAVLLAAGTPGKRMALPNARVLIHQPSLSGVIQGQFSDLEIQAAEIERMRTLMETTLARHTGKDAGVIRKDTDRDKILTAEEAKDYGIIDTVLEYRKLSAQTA
UniProt P9WFT3, whole entry: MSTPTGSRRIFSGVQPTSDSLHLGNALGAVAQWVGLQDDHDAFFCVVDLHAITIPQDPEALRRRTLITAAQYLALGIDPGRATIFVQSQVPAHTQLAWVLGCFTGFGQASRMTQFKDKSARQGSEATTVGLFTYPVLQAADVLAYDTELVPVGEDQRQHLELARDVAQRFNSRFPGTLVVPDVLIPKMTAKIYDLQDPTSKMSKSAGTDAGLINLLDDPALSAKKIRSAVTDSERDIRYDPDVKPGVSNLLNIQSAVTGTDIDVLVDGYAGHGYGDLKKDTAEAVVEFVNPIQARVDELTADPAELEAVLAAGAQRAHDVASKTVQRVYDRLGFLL
UniProt Q8IDJ8, 1-583: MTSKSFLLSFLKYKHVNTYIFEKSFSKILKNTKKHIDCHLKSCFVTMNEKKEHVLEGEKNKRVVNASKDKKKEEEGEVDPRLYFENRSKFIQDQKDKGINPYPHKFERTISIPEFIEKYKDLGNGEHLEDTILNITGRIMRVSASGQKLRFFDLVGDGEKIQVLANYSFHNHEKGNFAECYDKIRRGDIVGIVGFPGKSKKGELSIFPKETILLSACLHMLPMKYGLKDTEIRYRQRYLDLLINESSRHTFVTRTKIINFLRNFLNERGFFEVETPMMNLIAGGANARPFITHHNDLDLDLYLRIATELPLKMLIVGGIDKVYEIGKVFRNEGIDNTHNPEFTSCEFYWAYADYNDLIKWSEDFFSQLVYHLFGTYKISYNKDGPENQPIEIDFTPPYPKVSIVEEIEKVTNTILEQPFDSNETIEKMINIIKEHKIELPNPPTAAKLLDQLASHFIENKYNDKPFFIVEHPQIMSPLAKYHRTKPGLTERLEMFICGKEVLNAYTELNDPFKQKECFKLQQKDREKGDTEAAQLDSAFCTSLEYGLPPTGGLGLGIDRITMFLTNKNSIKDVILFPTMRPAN

The values are deposited in ChEMBL (CHEMBL3988442, “University of Dundee, Small-Polar-MMV Screening Library” (2021)).

Values are the deposited “Percent Effect”, in %.
How 0% and 100% were set is not recorded. Most values in the screen are low, and negative values occur.
Compounds were drawn at random from those tested, without regard to their results.
A dash means the value is not listed here; it may have been measured.

A: 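ClpP1P2, Mycobacterium tuberculosis (UniProt P9WPC5 and UniProt P9WPC3). Protease assay of ClpP1P2, read by the AMC dye that it sets free. Compounds at 50 µM. Higher reads as stronger inhibition, judged from the few compounds that gave an IC50. Most other retested compounds had strongly negative values. About 69,000 compounds were tested under these conditions; 0.015% (about 10) showed 50% or more at least once.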
B: 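Enzyme assay of tryptophanyl-tRNA synthetase; the read-out is not stated. Target: Tryptophan-tRNA ligase, Mycobacterium tuberculosis (UniProt P9WFT3). Concentration: 10 µM. Higher most likely means stronger inhibition; the record gives no direction and few retests gave an IC50. Size under these conditions: about 65,000 compounds, about 64 of them at 50% or above in at least one test.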
C: 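Enzyme assay of the cytosolic lysyl-tRNA synthetase in 384-well plates, read by luminescence. Target: Lysine-tRNA ligase, Plasmodium falciparum 3D7 (UniProt Q8IDJ8). Tested at 30 µM. Higher reads as stronger inhibition, judged from the few compounds that gave an IC50. Size under these conditions: about 69,000 compounds, about 49 of them at 50% or above in at least one test.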

Compound | A | B | C
CCCN(CCC)c1ncc(S(=O)(=O)c2ccccc2)c(N)n1 | 4.458 | -1.848 | 2.007
CS(=O)(=O)N1CCC(NC(=O)COc2cccc(Cl)c2)CC1 | -17.19 | 6.076 | 0.9111
O=C(NC[C@H]1OC[C@@H](NC2CCC(F)(F)CC2)[C@@H]1O)N1CCOCC1 | -1.783 | -5.994 | 3.834
O=C(NC1CC1)c1ccnc(-c2cc(NCCO)nc3[nH]ccc23)c1 | 12.53 | -2.429 | 4.816
CNC(=O)COc1ccc(-c2ccccc2)nc1 | 2.522 | -17.03 | 3.331
Cc1ccc2c(c1)CN(C(=O)c1cnc(C)cn1)C(CN(C)C)CO2 (centres unmarked) | 4.153 | - | -1.986
CC(C)OCc1ccccc1CNC(=O)C(C)S(=O)(=O)C(C)C (centres unmarked) | 18.87 | -2.581 | 4.811
CS(=O)(=O)C1=C(O)C(=O)N(c2ccccc2)C1c1ccccc1 (centres unmarked) | -7.257 | -1.834 | 3.806
Cn1nc(CN2CCCC2)c2c1CN(C(=O)Nc1cccc(F)c1)CC2 | 2.991 | -6.417 | 0.04196
CC(=O)N1CCC2(CC1)C(=O)N(C)c1c(F)cccc12 | 7.71 | -3.453 | 4.651
Cc1cncnc1C1CCN(CCO)CC1 | -3.153 | -4.552 | 0.4794
O=C(C1CC1)N1CCc2nc(C3CCN(C(=O)C4CC4)C3)nc(O)c2C1 (centres unmarked) | 1.932 | - | 6.624
Cc1ccnc(NCc2ccccc2N2CCOCC2)n1 | -4.522 | 3.127 | 9.59
Cc1cc(N(C)C)nc(NC2CCc3nc(C)nn3C2)n1 (centres unmarked) | -6.261 | 2.006 | 4.688
COC(=O)c1ncccc1N1CCCCC1 | -1.648 | 0.1361 | 5.983
CC(=O)N1CCCC(c2ccc(Cc3ccccc3)cn2)C1 (centres unmarked) | 4.658 | - | -0.08367
O=C(CN1CCc2cncnc2C1)NC(c1ccccc1)C1CC1 (centres unmarked) | -18.31 | 0.06915 | 0.8726
Cc1cccc(C)c1OC1CN(Cc2cnc(-c3ccco3)nc2)C1 | -5.124 | -3.306 | 2.373
COCC1Cn2nnc(-c3cnn(C)c3)c2CN1Cc1ccoc1 (centres unmarked) | -2.744 | 2.985 | 1.349